The series has as its system primary human T cells. The series is described as follows: CAR detection on transduced T cells (Protein L staining, flow cytometry). Format: cell-based. (In general: A flow cytometer gives signals particle by particle.)

We go through one molecule from patent US11951131B2, “Anti-SLAMF7 chimeric antigen receptors” (The United States of America, as represented by the …, priority 2018, dated 2024).

B1: Luc63-CD828Z: anti-SLAMF7 CAR (SEQ ID NO: 28): identical to Luc90-CD828Z except scFv from humanized Luc63 antibody (protein)
chain: MALPVTALLLPLALLLHAARPDIQMTQSPSSLSASVGDRVTITCKASQDVGIAVAWYQQKPGKVPKLLIYWASTRHTGVPDRFSGSGSGTDFTLTISSLQPEDVATYYCQQYSSYPYTFGQGTKVEIKGSTSGSGKPGSGEGSTKGEVQLVESGGGLVQPGGSLRLSCAASGFDFSRYWMSWVRQAPGKGLEWIGEINPDSSTINYAPSLKDKFIISRDNAKNSLYLQMNSLRAEDTAVYYCARPDGNYWYFDVWGQGTLVTVSSFVPVFLPAKPTTTPAPRPPTPAPTIASQPLSLRPEACRPAAGGAVHTRGLDFACDIYIWAPLAGTCGVLLLSLVITLYCNHRNRSKRSRLLHSDYMNMTPRRPGPTRKHYQPYAPPRDFAAYRSRVKFSRSADAPAYQQGQNQLYNELNLGRREEYDVLDKRRGRDPEMGGKPRRKNPQEGLYNELQKDKMAEAYSEIGMKGERRRGKGHDGLYQGLSTATKDTYDALHMQALPPR
As for B1, for the setting “Table B-1, staining the T cells with Protein L”, the “% CAR^+” value turned out to be 62%. The “CAR expression on T cells” value (gamma-retroviral transduction, in words) was “expressed on the surface of CAR T cells”.
